In the supplement of paper PMC12819154, “High-throughput peptide-centric local stability assay extends protein–ligand identification to membrane proteins, tissues and bacteria” (Nature Structural & Molecular Biology, 2025):
The other results are listed elsewhere or left out. Most values lie at the level of the controls, where differences are scatter.

Chains of the proteins cited; added tags and fusions are not shown. Lines headed by an entry give the natural chain unless they say otherwise; changes in a name come on top.
UniProt Q9ULR0: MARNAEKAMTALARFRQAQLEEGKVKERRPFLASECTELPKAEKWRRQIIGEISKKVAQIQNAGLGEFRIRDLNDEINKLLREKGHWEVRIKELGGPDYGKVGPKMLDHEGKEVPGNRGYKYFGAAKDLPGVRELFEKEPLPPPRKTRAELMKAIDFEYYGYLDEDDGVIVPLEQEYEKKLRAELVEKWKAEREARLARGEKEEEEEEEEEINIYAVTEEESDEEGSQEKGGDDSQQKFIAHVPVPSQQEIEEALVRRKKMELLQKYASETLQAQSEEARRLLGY
UniProt Q9UNW1: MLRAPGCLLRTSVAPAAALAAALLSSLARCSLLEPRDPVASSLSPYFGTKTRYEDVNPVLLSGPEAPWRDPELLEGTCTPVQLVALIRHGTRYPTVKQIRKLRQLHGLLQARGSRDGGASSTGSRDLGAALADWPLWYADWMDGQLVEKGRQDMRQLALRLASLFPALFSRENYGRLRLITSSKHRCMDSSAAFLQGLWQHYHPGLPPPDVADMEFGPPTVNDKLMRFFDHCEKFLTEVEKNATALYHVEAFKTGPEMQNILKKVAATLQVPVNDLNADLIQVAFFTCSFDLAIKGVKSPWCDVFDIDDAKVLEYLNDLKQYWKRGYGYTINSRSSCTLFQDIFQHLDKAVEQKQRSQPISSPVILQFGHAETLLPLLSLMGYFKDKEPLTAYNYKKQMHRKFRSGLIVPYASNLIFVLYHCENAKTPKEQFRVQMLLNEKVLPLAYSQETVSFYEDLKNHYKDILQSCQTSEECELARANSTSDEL
UniProt Q9UM13, whole entry: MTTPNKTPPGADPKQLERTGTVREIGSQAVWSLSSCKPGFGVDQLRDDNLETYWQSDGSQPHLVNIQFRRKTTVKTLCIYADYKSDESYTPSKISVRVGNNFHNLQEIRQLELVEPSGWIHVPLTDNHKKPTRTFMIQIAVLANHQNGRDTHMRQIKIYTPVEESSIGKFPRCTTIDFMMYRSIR
UniProt Q9UIQ6, whole entry: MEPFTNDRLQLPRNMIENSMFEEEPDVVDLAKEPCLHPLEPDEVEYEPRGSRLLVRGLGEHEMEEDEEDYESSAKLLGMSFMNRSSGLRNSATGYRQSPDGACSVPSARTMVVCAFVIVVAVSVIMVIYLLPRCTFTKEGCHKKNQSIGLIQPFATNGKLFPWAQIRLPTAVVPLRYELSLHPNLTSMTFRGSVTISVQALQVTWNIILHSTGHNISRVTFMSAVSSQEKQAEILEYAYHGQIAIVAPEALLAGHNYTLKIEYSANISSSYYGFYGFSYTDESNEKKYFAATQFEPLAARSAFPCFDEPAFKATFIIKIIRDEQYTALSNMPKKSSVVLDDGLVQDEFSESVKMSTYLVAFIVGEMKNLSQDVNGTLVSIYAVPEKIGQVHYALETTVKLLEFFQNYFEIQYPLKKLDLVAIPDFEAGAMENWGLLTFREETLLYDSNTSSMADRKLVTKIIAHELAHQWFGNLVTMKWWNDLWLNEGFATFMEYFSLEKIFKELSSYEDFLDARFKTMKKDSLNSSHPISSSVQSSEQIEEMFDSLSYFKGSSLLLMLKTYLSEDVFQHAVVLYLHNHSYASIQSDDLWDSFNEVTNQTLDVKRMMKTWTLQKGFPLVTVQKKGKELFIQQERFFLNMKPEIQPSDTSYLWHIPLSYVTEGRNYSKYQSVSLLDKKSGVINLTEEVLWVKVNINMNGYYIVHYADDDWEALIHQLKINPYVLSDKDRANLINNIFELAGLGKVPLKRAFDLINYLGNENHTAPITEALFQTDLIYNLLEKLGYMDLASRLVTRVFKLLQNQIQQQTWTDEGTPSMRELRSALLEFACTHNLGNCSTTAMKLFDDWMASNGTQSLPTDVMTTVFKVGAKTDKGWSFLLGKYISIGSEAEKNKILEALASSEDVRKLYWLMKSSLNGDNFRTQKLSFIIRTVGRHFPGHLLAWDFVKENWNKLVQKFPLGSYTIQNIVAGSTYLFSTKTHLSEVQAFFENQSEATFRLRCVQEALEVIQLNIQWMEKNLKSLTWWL
UniProt Q9UII5: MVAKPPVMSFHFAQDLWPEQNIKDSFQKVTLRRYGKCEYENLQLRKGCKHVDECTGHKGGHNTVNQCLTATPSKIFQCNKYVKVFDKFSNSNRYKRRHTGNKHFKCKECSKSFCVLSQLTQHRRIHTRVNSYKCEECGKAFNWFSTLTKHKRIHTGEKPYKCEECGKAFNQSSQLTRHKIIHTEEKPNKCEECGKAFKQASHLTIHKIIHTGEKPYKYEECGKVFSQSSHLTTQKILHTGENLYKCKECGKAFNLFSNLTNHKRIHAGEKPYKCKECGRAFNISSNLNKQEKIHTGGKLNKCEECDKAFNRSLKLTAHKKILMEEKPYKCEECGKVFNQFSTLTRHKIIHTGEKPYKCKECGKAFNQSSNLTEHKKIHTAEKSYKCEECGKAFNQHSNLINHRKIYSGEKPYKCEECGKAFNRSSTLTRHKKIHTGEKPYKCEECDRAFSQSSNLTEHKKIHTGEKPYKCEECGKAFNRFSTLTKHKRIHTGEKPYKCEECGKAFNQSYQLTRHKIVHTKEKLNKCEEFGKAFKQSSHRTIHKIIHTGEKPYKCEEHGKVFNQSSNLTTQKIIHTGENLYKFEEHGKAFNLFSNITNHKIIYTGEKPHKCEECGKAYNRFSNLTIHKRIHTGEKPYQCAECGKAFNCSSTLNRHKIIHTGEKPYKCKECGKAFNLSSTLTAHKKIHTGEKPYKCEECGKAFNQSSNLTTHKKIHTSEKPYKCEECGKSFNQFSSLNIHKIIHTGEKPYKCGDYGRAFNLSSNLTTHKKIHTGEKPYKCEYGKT
UniProt Q9UHY7: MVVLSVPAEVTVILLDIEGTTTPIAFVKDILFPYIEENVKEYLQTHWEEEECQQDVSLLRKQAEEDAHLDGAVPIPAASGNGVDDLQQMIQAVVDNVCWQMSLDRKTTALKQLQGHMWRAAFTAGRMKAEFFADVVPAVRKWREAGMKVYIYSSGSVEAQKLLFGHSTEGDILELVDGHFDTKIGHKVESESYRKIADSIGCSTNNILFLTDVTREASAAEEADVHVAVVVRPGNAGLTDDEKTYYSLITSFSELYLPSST
UniProt Q9UJT0: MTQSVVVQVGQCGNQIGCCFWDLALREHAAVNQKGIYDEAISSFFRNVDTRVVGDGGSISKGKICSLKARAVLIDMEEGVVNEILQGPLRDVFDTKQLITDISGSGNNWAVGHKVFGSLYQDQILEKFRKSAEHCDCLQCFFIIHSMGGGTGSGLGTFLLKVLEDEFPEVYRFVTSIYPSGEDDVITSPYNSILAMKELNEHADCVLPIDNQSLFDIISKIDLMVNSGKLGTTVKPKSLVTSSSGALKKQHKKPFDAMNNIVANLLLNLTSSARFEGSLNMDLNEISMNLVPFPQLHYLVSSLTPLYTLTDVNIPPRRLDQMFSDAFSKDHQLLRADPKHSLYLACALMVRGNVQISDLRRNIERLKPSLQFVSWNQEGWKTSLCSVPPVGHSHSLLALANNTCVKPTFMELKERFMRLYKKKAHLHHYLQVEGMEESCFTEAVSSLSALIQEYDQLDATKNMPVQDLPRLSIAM
UniProt Q9UPZ9: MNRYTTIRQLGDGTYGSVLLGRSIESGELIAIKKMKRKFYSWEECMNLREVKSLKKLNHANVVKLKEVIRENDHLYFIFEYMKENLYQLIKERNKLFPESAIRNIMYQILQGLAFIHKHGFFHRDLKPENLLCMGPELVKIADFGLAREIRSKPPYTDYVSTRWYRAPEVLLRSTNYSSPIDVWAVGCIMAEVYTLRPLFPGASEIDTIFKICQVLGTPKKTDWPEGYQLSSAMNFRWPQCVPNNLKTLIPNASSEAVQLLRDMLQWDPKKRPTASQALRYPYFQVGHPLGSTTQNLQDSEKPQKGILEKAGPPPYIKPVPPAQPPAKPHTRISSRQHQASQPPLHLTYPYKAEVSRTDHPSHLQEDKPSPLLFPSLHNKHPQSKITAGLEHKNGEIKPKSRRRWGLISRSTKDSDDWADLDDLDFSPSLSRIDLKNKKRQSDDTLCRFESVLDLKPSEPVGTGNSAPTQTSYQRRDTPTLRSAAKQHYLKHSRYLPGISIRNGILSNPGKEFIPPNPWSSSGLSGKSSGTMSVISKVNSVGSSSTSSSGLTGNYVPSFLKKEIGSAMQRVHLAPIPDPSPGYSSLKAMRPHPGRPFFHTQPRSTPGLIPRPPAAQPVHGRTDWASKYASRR

What follows are targets tested with Cc1nc(Nc2ncc(C(=O)Nc3c(C)cccc3Cl)s2)cc(N2CCN(CCO)CC2)n1 [dasatinib] (assay: log2 fold change of tryptic peptide abundance, ligand vs vehicle (limited proteolysis) (log2 ratio); higher = more trypsin-susceptible (destabilized)). Settings: ligand concentration: 5 uM; sample: K562 cleared lysate.

Target	log2 fold change
ISY1 (peptide sequence: RPFLASECTELPK, peptide start residue: 29) (UniProt Q9ULR0)	0.0972
MINPP1 (peptide sequence: LASLFPALFSR, peptide start residue: 161) (UniProt Q9UNW1)	0.489
ANAPC10 (peptide sequence: CTTIDFMMYR, peptide start residue: 173) (UniProt Q9UM13)	0.0401
LNPEP (peptide sequence: LLGMSFMNR, peptide start residue: 76) (UniProt Q9UIQ6)	-0.0153
UniProt Q9UII5 (peptide sequence: AFNLSSNLTTHKK, peptide start residue: 756)	0.204
ENOPH1 (peptide sequence: IGHKVESESYR, peptide start residue: 184) (UniProt Q9UHY7)	1.03
TUBE1 (peptide sequence: SLVTSSSGALK, peptide start residue: 238) (UniProt Q9UJT0)	-0.138
ICK (peptide sequence: LNHANVVK, peptide start residue: 68) (UniProt Q9UPZ9)	0.175
